Isolated mass data for one substance are collected here from patent US5998375 (dated 1999).

The series is described as follows: general procedure: Fmoc solid-phase peptide synthesis; Rink resin; HBTU in NMP; HOBT/EDAC; DCC symmetrical anhydrides or HOBt esters (Boc). As to conditions: whole synthesis, scale 0.054 mmol.

The substance F-a-G-F-T-G-A-R-K-S-A-R-K-L-A-N-Q-NH2 came in with an isolated mass of 28 mg.
